Data as given in the supplement of paper PMC10849652.
The other results are listed elsewhere or left out.

Protein sequences, listed by entry. Tags and fused reporters are not part of them. Lines headed by an entry give the natural chain unless they say otherwise; changes in a name come on top.
UniProt Q9UI38: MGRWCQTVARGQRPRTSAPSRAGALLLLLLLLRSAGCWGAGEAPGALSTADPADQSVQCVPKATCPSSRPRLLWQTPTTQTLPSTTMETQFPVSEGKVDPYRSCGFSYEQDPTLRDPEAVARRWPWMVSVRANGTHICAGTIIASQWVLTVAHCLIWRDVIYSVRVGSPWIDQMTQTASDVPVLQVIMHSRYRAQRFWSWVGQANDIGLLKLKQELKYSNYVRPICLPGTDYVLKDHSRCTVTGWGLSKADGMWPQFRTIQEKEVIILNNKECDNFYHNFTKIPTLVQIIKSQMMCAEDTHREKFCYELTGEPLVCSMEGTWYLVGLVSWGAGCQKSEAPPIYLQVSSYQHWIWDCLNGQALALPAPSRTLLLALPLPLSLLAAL
UniProt Q9UHX1: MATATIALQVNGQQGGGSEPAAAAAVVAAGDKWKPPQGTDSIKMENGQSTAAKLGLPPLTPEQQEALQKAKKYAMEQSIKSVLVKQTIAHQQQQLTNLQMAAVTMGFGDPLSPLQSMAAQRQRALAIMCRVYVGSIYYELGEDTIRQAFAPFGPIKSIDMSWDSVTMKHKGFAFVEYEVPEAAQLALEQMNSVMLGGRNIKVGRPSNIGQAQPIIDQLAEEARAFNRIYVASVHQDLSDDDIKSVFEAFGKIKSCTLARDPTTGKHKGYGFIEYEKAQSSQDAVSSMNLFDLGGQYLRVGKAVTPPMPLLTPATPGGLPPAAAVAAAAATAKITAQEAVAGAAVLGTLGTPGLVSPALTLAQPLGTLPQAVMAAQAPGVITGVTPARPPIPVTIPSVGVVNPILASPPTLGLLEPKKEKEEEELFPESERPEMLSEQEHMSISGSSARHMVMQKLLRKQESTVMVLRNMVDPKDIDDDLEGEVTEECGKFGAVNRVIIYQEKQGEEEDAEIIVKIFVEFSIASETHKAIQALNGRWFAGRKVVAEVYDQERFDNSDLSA
UniProt P28062: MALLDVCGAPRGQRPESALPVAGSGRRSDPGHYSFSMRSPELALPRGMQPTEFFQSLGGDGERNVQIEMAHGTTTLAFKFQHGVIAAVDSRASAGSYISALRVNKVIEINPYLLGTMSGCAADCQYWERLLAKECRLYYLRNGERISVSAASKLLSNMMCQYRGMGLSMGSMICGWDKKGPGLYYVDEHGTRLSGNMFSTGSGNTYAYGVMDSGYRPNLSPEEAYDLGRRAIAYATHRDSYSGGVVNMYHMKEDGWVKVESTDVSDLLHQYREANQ
UniProt P60484: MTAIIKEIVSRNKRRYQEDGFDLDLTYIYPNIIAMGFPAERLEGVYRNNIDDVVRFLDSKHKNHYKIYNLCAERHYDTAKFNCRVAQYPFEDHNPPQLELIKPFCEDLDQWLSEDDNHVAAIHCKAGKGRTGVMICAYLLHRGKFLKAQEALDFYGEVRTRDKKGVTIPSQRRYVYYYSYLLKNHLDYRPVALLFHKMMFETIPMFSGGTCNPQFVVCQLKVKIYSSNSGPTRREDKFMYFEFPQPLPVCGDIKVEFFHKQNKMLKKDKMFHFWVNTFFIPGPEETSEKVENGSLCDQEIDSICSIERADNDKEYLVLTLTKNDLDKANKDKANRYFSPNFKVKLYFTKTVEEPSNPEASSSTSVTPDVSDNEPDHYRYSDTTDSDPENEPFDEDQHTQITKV
UniProt Q05397, whole entry, looked up: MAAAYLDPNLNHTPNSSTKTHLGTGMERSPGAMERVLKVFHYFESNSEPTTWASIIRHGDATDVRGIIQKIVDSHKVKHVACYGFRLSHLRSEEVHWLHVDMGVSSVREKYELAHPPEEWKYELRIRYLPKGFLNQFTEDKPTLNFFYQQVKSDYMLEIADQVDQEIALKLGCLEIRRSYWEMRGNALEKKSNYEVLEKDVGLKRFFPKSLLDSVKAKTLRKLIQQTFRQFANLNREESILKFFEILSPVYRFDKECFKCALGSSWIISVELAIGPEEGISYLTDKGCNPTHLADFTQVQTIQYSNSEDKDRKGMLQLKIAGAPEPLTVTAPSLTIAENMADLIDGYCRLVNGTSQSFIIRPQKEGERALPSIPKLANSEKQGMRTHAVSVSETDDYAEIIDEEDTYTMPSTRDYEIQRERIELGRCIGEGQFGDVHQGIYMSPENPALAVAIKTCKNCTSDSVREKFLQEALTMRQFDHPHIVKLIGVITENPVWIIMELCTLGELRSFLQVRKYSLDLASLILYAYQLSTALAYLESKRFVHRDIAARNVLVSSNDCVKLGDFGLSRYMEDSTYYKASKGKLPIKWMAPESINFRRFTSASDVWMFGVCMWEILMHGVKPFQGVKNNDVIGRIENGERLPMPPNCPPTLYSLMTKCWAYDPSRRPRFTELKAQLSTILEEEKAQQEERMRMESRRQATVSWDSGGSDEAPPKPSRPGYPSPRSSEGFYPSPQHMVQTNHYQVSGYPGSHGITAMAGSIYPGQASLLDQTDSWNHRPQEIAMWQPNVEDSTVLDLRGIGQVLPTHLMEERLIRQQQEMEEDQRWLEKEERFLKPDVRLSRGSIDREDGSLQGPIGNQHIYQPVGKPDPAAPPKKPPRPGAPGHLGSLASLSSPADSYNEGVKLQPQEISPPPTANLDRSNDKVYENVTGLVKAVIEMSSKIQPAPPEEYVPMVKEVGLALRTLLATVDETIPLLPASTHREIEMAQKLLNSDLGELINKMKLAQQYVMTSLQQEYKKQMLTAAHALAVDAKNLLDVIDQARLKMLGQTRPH
UniProt Q15008: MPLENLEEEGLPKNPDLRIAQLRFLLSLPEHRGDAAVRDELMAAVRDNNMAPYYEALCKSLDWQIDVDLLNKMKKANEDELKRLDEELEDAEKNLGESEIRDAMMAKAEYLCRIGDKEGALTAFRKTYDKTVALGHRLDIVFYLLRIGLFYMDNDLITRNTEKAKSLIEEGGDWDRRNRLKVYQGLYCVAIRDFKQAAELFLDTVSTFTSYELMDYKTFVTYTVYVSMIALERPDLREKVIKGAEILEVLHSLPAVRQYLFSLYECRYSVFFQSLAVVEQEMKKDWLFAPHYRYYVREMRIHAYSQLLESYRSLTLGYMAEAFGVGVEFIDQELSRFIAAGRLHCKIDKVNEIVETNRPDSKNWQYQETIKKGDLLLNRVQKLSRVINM
UniProt Q9ULL5: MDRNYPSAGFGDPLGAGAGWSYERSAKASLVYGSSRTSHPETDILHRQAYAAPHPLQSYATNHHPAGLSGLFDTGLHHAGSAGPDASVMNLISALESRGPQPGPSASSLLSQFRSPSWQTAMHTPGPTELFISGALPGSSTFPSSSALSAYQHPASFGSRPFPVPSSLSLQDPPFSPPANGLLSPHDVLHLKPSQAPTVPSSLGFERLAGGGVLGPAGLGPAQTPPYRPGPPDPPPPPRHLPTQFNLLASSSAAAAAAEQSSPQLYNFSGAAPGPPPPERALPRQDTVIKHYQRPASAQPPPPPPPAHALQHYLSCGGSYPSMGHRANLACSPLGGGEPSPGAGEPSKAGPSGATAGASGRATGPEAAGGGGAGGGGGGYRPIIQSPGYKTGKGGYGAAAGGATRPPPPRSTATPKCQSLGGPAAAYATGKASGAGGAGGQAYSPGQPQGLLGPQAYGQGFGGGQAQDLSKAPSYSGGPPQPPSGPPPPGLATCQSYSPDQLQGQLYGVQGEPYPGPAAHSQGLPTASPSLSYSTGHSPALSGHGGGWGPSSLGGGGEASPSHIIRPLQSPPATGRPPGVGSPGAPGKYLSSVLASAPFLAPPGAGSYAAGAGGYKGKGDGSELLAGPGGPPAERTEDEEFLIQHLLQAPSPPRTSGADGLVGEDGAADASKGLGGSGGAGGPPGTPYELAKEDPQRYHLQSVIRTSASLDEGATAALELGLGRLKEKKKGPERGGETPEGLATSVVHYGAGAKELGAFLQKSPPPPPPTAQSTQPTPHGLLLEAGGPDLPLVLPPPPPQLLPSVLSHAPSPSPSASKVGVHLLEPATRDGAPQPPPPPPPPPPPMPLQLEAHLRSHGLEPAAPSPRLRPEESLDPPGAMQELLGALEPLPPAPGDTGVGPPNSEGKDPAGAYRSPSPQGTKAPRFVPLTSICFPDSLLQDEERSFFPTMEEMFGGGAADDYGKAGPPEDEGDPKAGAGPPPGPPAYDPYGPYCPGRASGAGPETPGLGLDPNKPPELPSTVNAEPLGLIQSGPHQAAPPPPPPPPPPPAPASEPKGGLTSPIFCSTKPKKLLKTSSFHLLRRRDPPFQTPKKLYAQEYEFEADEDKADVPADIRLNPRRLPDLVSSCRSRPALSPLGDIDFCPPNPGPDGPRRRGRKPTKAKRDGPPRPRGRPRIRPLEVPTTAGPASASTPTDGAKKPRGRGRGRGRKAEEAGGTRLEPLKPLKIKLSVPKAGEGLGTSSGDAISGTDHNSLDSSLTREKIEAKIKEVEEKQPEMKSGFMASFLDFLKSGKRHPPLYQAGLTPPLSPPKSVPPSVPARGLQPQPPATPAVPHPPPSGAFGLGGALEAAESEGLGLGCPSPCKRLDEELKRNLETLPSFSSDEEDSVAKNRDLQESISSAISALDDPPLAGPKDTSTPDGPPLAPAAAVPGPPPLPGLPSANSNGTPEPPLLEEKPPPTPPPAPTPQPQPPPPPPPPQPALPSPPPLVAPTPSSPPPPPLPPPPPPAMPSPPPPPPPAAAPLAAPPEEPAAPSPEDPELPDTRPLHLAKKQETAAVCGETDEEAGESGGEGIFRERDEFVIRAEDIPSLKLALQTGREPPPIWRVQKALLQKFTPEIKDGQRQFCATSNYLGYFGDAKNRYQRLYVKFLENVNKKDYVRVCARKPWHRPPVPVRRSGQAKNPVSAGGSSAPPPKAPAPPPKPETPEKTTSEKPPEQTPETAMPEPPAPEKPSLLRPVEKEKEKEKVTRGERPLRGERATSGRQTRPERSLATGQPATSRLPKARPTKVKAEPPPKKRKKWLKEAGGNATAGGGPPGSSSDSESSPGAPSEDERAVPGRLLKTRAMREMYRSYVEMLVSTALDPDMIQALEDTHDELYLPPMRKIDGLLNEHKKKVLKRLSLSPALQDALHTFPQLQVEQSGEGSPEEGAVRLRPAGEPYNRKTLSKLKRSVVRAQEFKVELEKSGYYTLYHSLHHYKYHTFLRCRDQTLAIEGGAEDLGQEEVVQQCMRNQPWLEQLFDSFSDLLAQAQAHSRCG
UniProt O75365, whole entry, looked up: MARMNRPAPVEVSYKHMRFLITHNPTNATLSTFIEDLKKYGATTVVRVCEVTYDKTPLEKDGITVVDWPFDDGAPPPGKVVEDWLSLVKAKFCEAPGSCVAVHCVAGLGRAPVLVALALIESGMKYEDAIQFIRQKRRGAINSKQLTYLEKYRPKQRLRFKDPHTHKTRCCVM
UniProt Q8WV60: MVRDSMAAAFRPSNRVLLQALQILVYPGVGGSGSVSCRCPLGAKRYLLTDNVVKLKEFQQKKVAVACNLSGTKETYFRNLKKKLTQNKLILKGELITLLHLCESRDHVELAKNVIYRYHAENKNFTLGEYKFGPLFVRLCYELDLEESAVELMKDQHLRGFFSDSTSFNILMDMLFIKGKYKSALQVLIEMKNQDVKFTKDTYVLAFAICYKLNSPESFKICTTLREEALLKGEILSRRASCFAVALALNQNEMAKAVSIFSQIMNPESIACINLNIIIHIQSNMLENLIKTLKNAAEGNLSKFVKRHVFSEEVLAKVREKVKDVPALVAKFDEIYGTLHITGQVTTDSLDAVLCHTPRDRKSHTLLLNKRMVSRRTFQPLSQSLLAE
UniProt Q16378: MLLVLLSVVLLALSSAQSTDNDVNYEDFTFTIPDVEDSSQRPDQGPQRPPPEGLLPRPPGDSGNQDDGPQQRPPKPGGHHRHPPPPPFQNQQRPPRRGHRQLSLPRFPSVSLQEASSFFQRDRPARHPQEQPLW
UniProt Q86Y79: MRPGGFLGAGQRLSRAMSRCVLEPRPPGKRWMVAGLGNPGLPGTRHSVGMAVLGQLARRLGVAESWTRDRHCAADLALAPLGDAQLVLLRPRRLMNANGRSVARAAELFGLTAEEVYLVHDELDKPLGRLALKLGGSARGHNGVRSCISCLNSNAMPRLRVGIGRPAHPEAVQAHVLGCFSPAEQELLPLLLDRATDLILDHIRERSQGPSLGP
UniProt P07478, whole entry, looked up: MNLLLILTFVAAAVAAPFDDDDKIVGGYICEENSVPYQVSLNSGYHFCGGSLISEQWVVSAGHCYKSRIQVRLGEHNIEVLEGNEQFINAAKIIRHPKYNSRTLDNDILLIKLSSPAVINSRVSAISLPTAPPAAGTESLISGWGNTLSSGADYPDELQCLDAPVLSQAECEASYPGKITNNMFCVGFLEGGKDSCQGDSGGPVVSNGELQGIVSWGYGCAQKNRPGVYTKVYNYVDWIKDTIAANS
UniProt Q16651: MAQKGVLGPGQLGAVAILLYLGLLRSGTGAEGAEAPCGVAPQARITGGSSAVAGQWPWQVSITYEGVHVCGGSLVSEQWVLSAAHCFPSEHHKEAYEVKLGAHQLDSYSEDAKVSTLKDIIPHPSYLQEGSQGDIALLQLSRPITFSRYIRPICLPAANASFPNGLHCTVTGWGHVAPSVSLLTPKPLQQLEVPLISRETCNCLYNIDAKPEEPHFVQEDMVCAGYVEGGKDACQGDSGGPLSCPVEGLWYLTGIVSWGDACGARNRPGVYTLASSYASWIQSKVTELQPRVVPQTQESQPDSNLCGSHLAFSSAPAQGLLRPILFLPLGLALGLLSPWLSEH

compound: CC1=C(SC2=C1C(=N[C@H](C3=NN=C(N32)C)CC(=O)N)C4=CC=C(C=C4)Cl)C; assay: log2 fold change, soluble protein after heating vs DMSO (PISA); higher = thermal stabilisation; K562 lysate, 10 uM; active = over 0.2 and 3.5 SD of the protein, either way, in both replicates (recomputed)
In short: (§1)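 To prepare the extract, K562 pellets were dounce-homogenised in PBS pH 7.4 with 1 mM MgCl2, giving crude material at 1 mg/mL protein. This was treated with 10 μM compound for 30 min, then heated in aliquots for 3 min over 48°C-58°C before pooling and addition of NP-40 to 0.5% at 4°C. Centrifugation at 21,000xg for 90 min left soluble protein in the supernatant, which TMTpro 16plex LC-MS/MS quantified with equalised channel sums. Results are log-two fold changes in thermal stability compared with solvent controls, from duplicates.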

| Target | log2 fold change |
| --- | --- |
| PRSS50 (UniProt Q9UI38) | inactive: -0.029 |
| PUF60 isoform 2 (UniProt Q9UHX1) | inactive: 0.109 |
| PSMB8 (UniProt P28062) | inactive: -0.066 |
| PTPRB isoform 3 (UniProt P23467) | inactive: 0.006 |
| PTEN isoform 2 (UniProt P60484) | inactive: 0.044 |
| PTK2 isoform 2 (UniProt Q05397) | inactive: 0.081 |
| PSMA7 (UniProt H0Y586) | inactive: 0.099 |
| PSMB2, A0A087WVV1 | inactive: -0.034 |
| PSMD6 (UniProt Q15008) | inactive: 0.049 |
| PRXL2A (UniProt Q9BRX8) | inactive: 0.245 |
| PSEN2 (UniProt P49810) | inactive: -0.003 |
| PRR12 (UniProt Q9ULL5) | inactive: 0.126 |
| PSIP1 (UniProt V9GYT7) | inactive: -0.192 |

compound: CC1=C2C(=CC=C1)N=C(N(C2=O)C3=CC=CC=C3C)CN4C=NC5=C(N=CN=C54)N; assay: as above
In short: as §1

| Target | log2 fold change |
| --- | --- |
| PTPA (UniProt Q5T948) | inactive: -0.033 |
| PSMF1 (UniProt Q5QPM7) | inactive: -0.021 |
| PUF60 isoform 2 (UniProt Q9UHX1) | inactive: 0.035 |
| PTPRF (UniProt P10586) | inactive: 0.243 |
| PTOV1 (UniProt Q86YD1) | inactive: -0.126 |
| PSMC3 (UniProt E9PLG2) | inactive: 0.011 |
| PTP4A3 (UniProt O75365) | inactive: -0.212 |
| PTMS (UniProt F5GXR3) | inactive: -0.279 |
| PSMB2, A0A087WVV1 | inactive: 0.064 |
| PTCD2 (UniProt Q8WV60) | inactive: -0.016 |
| PRR3 (UniProt P79522) | inactive: 0.046 |
| PRR4 (UniProt Q16378) | inactive: -0.076 |
| PTRH1 (UniProt Q86Y79) | inactive: -0.233 |
| PSMA3 (UniProt H0YJ03) | inactive: 0.171 |

compound: Cc1sc2c(c1C)C(c1ccc(Cl)cc1)=N[C@@H](CC(=O)OC(C)(C)C)c1nnc(C)n1-2; assay: as above
In short: as §1

| Target | log2 fold change |
| --- | --- |
| PRSS50 (UniProt Q9UI38) | inactive: 0.1 |
| PSMB8 (UniProt P28062) | inactive: -0.142 |
| PTOV1 (UniProt Q86YD1) | inactive: -0.28 |
| PSMA7 isoform 2 (UniProt O14818) | inactive: -0.085 |
| PRSS2 (UniProt P07478) | inactive: 0.002 |
| PTP4A3 (UniProt O75365) | inactive: 0.004 |
| PTPRB isoform 3 (UniProt P23467) | inactive: 0.149 |
| PTEN isoform 2 (UniProt P60484) | inactive: -0.021 |
| PTK2 isoform 2 (UniProt Q05397) | inactive: -0.324 |
| PRSS8 (UniProt Q16651) | inactive: 0.017 |
| PTCD2 (UniProt Q8WV60) | inactive: 0.06 |
| PRXL2A (UniProt Q9BRX8) | inactive: 0.047 |
| PSTK (UniProt H7BYY4) | inactive: 0.039 |
| PSEN2 (UniProt P49810) | inactive: -0.107 |
| PWWP2B (UniProt Q6NUJ5) | inactive: 0.074 |
| PSMA3 (UniProt H0YJ03) | inactive: 0.034 |
